Data reported in PMC3377666.
These are yes or no findings as the source states them, for the method shown. Some results given as binding are weak or reduced against the parent protein; the word gives no strength.

Protein sequences, listed by entry. Tags and fused reporters are not part of them. Lines headed by an entry give the natural chain unless they say otherwise; changes in a name come on top.
UniProt P28340: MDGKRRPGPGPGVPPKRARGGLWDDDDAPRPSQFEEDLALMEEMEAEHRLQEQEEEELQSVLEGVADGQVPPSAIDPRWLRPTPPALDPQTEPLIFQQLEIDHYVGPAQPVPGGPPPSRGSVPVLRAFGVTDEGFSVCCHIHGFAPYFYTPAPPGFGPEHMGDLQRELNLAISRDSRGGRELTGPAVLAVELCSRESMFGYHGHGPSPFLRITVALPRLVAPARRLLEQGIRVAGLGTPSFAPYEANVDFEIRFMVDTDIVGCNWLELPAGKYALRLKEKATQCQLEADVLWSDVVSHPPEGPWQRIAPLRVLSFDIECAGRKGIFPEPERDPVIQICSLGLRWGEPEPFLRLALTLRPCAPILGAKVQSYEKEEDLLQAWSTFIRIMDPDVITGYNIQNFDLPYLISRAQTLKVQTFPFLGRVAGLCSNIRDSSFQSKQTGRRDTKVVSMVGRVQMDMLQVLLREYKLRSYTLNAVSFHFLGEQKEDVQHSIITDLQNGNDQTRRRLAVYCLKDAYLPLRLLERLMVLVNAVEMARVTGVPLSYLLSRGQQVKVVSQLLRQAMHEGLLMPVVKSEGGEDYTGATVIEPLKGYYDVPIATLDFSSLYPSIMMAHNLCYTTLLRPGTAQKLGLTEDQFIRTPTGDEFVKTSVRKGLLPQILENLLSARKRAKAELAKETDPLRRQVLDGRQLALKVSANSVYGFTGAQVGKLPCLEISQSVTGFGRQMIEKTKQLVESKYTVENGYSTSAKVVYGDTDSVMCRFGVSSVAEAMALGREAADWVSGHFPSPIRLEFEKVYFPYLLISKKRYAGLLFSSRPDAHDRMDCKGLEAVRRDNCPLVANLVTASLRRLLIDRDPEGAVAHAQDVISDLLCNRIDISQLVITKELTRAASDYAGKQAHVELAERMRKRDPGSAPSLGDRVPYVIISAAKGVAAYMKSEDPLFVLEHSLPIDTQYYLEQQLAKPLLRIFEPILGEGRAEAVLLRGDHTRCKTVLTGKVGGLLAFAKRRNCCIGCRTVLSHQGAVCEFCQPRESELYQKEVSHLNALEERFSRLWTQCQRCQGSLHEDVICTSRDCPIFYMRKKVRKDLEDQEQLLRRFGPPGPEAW
UniProt P49005: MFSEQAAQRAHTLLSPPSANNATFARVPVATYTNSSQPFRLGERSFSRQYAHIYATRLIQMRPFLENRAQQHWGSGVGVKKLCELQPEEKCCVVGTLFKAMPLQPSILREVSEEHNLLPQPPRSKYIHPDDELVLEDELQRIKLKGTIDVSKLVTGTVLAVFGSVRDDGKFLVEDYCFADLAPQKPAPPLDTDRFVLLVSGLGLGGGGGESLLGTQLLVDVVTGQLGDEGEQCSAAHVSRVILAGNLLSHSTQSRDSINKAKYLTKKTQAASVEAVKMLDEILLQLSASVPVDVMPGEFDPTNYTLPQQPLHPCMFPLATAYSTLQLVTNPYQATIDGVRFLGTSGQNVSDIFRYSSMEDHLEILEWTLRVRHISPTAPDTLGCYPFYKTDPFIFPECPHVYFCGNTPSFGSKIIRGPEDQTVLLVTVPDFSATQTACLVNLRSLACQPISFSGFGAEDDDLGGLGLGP

Experiments:
[1] = molecular target: human DNA polymerase δ catalytic subunit p125 (human) (UniProt P28340); experiment: immunoaffinity chromatography and Mono Q co-purification; subunits co-expressed in Sf9 from a single MultiBac baculovirus; lysate on 78F5 anti-p125 agarose, wash TGEE with 0.1 M NaCl, elution 0.4 M NaCl and 30% ethylene glycol; Mono Q gradient 0.1 to 1 M NaCl; 12.5% SDS-PAGE, silver staining
[2] = molecular target: native DNA polymerase δ subunit p125 of HeLa cells (human (endogenous in HeLa)) (UniProt P28340); experiment: immunoaffinity chromatography with Western blot; lysate of HeLa cells (untreated, or UV-C 20 J/m^2 and harvested 4 hours later) on anti-p125 agarose at 4°C, wash TGEE with 0.1 M NaCl, elution 0.4 M NaCl and 30% ethylene glycol; fractions blotted for p12, p125, p50 and p68

binding [1] | binding [2] | Substance
binds | – | human DNA polymerase δ subunit p50 (from UniProt P49005 1-469)
– | binds | native DNA polymerase δ subunit p50 of HeLa cells (from UniProt P49005 1-469)
